Measurements taken from patent US20070207522A1 (UNIVERSITY OF VIRGINIA PATENT FOUNDATION, published 2007).
Results are given in words; binding and its absence hold for the method and conditions named. For some assays here: In cells and extracts the contact can be indirect. Some entries that bind do so weakly or less than the wild type. For some assays here: Tags and fused reporters may be left off the sequences shown.

T1: human syndecan-1 (human, UniProt P18827 23-310)
T1 construct: also called mammalian syndecan-1; CD138
T1 sequence (looked up): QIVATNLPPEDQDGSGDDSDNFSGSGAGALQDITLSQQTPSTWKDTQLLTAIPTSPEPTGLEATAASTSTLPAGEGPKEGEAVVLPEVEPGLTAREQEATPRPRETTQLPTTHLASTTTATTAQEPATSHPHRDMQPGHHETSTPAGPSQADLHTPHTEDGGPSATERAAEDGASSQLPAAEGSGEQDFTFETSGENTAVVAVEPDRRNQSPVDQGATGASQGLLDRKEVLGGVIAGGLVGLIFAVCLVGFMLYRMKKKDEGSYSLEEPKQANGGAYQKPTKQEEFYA


Legend:
human syndecan-1 [1] = molecular target: T1, human syndecan-1; experiment: pull-down with intein-tagged deletion mutant
human syndecan-1 [2] = molecular target: T1, human syndecan-1; experiment: competitive binding assay, soluble competitor against lacritin binding to syndecan-1

binding (human syndecan-1 [1]) | binding (human syndecan-1 [2]) | Binder
binds |  | intein-tagged lacritin deletion mutant N-24 (ligand, not shown: small tags and cut ends) ISGPAEPASPPETTTTAQETSAAAVQGTAKVTSSRQELNPLKSIVEKSILLTEQALAKAGKGMHGGVPGGKQFIENGSEFAQKLLKKFSLLKPWA
 | binds | lacritin deletion mutant N-24 (soluble) (ligand) ISGPAEPASPPETTTTAQETSAAAVQGTAKVTSSRQELNPLKSIVEKSILLTEQALAKAGKGMHGGVPGGKQFIENGSEFAQKLLKKFSLLKPWA
